These are yes or no findings as the source states them, for the method shown. Binding seen in cells or lysates may run through a third protein. Some entries that bind do so weakly or less than the wild type.
Legend:
[1] = molecular target: N-terminal PA-tagged human USAG-1 (WISE) recombinant protein (human) (UniProt Q6X4U4); assay: Protein A sepharose pull-down from Expi293F supernatant, SDS-PAGE with CBB staining
[2] = molecular target: N-terminal PA-tagged mouse USAG-1 (WISE) recombinant protein (mouse) (UniProt Q9CQN4); assay: as above

Amino acid sequences for entries named in this document (tags omitted). Residues count along the entry.
UniProt Q6X4U4, residues 24-206: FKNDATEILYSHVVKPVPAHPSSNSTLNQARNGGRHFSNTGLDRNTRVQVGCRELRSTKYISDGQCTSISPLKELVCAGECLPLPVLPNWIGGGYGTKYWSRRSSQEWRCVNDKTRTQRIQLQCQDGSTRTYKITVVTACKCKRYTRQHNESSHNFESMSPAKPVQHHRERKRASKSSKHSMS
UniProt Q9CQN4, residues 24-206: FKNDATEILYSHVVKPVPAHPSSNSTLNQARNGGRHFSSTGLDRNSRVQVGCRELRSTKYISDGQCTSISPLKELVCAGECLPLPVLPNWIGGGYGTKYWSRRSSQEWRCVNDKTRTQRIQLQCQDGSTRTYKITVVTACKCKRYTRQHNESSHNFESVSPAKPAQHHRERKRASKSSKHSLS

B1: mouse anti-USAG-1 neutralizing antibody B48C (antibody, V domains shown)
VH: EVQLQQSGAELVRPGASVKLSCTASGFNIKDDYMHWVKQRPEQGLEWIGWIDPENGDTEYASKFQGKATITADTSSNTAYLQLSSLTSEDTAVYYCITPYYYGSSFSYWYFDVWGTGTTVTVSS
VL: DVLMTQTPLSLPVSLGDQASISCRSSQSIVHSNGNTYLEWYLQKPGQSPKLLIYKVSNRFSGVPDRFSGSGSGTDFTLKISRVEAEDLGVYYCFQGSHVPWTFGGGTKLEIKR
notes: Mouse monoclonal from a hybridoma (USAG-1 KO mouse immunised with rat USAG-1)
- binding [1]: binds
- binding [2]: binds
